Measurements taken from the supplement of paper PMC6289059.
The list shows a part of the results. Repeats are few or missing, and single values can be far off.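 The assay uses human stem cell-derived hepatocyte-like cells whose DGUOK gene was disrupted by CRISPR, modeling liver mtDNA depletion syndrome. ATP signals were scored within each plate, and any drug with a score of at least 3 was called a primary hit.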

These compounds were tested on DGUOK Δ14/Δ5 iPSC-derived hepatocyte-like cells (SV20) (assay: ATP level (CellTiter-Glo luminescence) Z score relative to plate distribution, under 2-DG glycolysis block; higher = more cellular ATP (rescue of mitochondrial ATP production)). Conditions: 5 µM; treatment time: day 15 to day 20 of differentiation (5 days); 2-deoxy-D-glucose: 20 mM for 24 h before assay.
`CCC1(CC)C(=O)NC(=O)NC1=O` was tested, and the ATP level was inactive: 0.427. With `CC([C@H](O)c1ccccc1)N(C)C` (some centres undefined) the ATP level was inactive: -0.549. With `Cc1ncc(C[n+]2csc(CCO)c2C)c(=O)[nH]1` the ATP level was inactive: 0.659. `COc1ccc(OC)c(C(O)C(C)N)c1` (centres undefined) was tested, and the ATP level was inactive: -0.315. `CCC(=O)O[C@H]1CC[C@H]2[C@@H]3CCC4=CC(=O)CC[C@]4(C)[C@H]3CC[C@]12C` was tested, and the ATP level was inactive: -1.37. With `O=C1C(Cl)=C(Cl)C(=O)C(Cl)=C1Cl` the ATP level was inactive: 0.987. With `C[C@@H]1CC[C@]2(NC1)O[C@H]1C[C@H]3[C@@H]4CC=C5C[C@@H](O)CC[C@]5(C)[C@H]4CC[C@]3(C)[C@H]1[C@@H]2C` the ATP level was inactive: -1.09. For `C=CCC1(C(C)CCC)C(=O)NC(=S)NC1=O` (centres undefined), the ATP level was active: 5.84. `CCCCCCCCCCCCCCCC[n+]1ccccc1` was tested, and the ATP level was inactive: -14.7. For `c1ccc(/N=N/c2ccccc2)cc1`, the ATP level was inactive: -5.81. For `CC(=O)O[C@@H]1CC[C@@]2(C)[C@@H](CC[C@@H]3[C@@H]2CC[C@]2(C)C(=O)CC[C@@H]32)C1`, the ATP level was inactive: 0.0594. For `COP(=S)(OC)Oc1ccc(Sc2ccc(OP(=S)(OC)OC)cc2)cc1`, the ATP level was inactive: 0.661. For `CCOP(=S)(OCC)Oc1nc(Cl)c(Cl)cc1Cl`, the ATP level was inactive: -0.251. With `c1ccc2c(c1)sc1ccccc12` the ATP level was inactive: 0.493. In the case of `O=P1(N(CCCl)CCCl)NCCCO1` (centres undefined), the ATP level is reported as inactive: 1.15. `CN1C(=O)CCS(=O)(=O)C1c1ccc(Cl)cc1` (centres undefined) was tested, and the ATP level was inactive: 1.05. In the case of `CN(C)[C@@H]1C(=O)C(C(N)=O)=C(O)[C@@]2(O)C(=O)C3=C(O)c4c(O)cccc4[C@@](C)(O)[C@H]3[C@H](O)[C@@H]12`, the ATP level is reported as inactive: -1.78. `CC(=O)NC1CCSC1=O` (centres undefined) was tested, and the ATP level was inactive: -0.545. For `O=C(NC(O)C(Cl)(Cl)Cl)NC(O)C(Cl)(Cl)Cl` (centres undefined), the ATP level was inactive: 1.93. `CNC(=O)Oc1ccccc1OC(C)C` was tested, and the ATP level was inactive: 1.43. In the case of `O=C(O)Cc1cnc[nH]1`, the ATP level is reported as inactive: -2.23. `COc1cc([C@@H]2c3cc4c(cc3[C@H](OC(C)=O)[C@H]3COC(=O)[C@@H]23)OCO4)cc(OC)c1OC` was tested, and the ATP level was inactive: 1.49. With `CCOP(=S)(OCC)Oc1ccc2c(C)c(Cl)c(=O)oc2c1` the ATP level was inactive: -0.347. With `CC1CC(Cl)CCC1C(=O)OC(C)(C)C` (centres undefined) the ATP level was inactive: -0.926. `COc1ccccc1N1CCNCC1` was tested, and the ATP level was inactive: -1.64. With `CCOc1cc(C=O)ccc1O` the ATP level was inactive: 0.76. In the case of `COc1ccc(C(CN(C)C)C2(O)CCCCC2)cc1` (centres undefined), the ATP level is reported as inactive: -0.793. For `C[C@H](N)[C@H](O)c1ccccc1`, the ATP level was inactive: -1.83. In the case of `CNC(=O)Oc1ccc2c(c1)[C@]1(C)CCN(C)[C@@H]1N2C`, the ATP level is reported as inactive: -0.669.
